Measurements as given in patent US6413983B1, “Benzopyranyl heterocycle derivatives, process for preparation thereof, and pharmaceutical compositions containing them” (Dongbu Hannong Chemical Co. Ltd., priority 2000, dated 2002).
Some results were stated once for a whole list of compounds, not compound by compound.

Legend:
[1] = test system: cerebral cortical neurons; test: Protective activity for neuronal cells against iron-induced damage (LDH release); format: cell-based, rat; conditions: 30 μM compound; 50 uM FeSO4, 24 hours; LDH reduction rate vs control
Method: From the brains of 17-18 day-old rat embryos, cerebral cortical neurons were isolated and then, cultured at 37° C. for 7-9 days in a 5% CO2 incubator. The cortical cell cultures were washed twice with a minimum essential medium (MEM) to reduce the serum concentration to 0.2% and pre-treated for 30 min with 30 μM of each of test compounds. For the experiments, the test compounds were dissolved in DMSO and diluted in a medium. At this time, the final concentration of DMSO was not allowed to exceed 0.2%. For a control group, only vehicle was applied.
After the pre-treatment with test compounds or vehicle, FeSO4 was added to a final concentration of 50 uM, and the cultures were maintained for 24 hours in a CO2 incubator. During incubation, lactate dehydrogenase (LDH) was released into the medium upon neuronal death by the oxidative toxicity of iron. The extent of neuronal damage was assessed by measuring the amount of LDH released into the media. The protective effect of the compounds of interest on neurons was evaluated by calculating the LDH reduction rate of treatment group compared with that of the control group.

rat brain homogenate = test: Inhibitory activity against iron-induced lipid peroxidation (MDA quantification); format: biochemical; conditions: 100 μM compound; 400 μM FeCl2, 37° C., 30 min; MDA reduction rate vs control
Method: The rat brain was homogenized in a Krebs buffer (15 mM HEPES, 10 mM glucose, 140 mM NaCl, 3.6 mM KCl, 1.5 mM CaCl2, 1.4 mM KH2PO4, 0.7 mM MgCl2, pH 7.4) and the supernatant separated by centrifugation at 12,000 rpm for 10 min was used for further experiments. FeCl2 was added to a final concentration of 400 μM in the brain homogenate which was then allowed to stand at 37° C. for 30 min for the facilitation of oxidation. Each of the test compounds was added at a concentration of 100 μM and vehicle was used as a control.
Iron facilitates the oxidation of the brain homogenate to produce malondialdehyde (MDA), a lipid peroxidation product. Thus, the lipid peroxidation was determined by MDA quantification. The inhibitory effect of the test compounds against the lipid peroxidation was evaluated by calculating MDA reduction rate of the test compounds compared with that of the control group.
Typically, the MDA quantification is achieved by reacting samples with 2-thiobarbituric acid (TBA) and measuring the absorbance at 530 nm. However, this method is unsuitable to treat samples on a large scale because of a boiling step. Thus, in this experiment, N-methyl-2-phenylindole was used instead of TBA. […] Bioxytech^R LPO-586 Kit was used for MDA quantification.

## CCOC(=O)[C@@H]1Cc2ccccc2N1[C@@H]1c2cc([N+](=O)[O-])ccc2O[C@](C)(C(OC)OC)[C@H]1O [Example 4, 1-[(2S, 3S, 4R)-3,4-dihydro-2-dimethoxymethyl-3-hydroxy-2-methyl-6-nitro-2H-1-benzopyran-4-yl]-(2S)-2,3-dihydro-1H-indole-2-carboxylic acid ethyl ester]
[1]
  % Protection: higher than 90%

## CCOC(=O)[C@H]1Cc2ccccc2N1[C@H]1c2cc(N)ccc2O[C@](C)(C(OC)OC)[C@@H]1O [Example 42, 1-[(2S, 3R, 4S)-6-amino-3,4-dihydro-2-dimethoxymethyl-3-hydroxy-2-methyl-2H-1-benzopyran-4-yl]-(2R)-2,3-dihydro-1H-indole-2-carboxylic acid ethyl ester]
Rat brain homogenate
  % Inhibition: higher than 90%

## CCOC(=O)[C@@H]1Cc2ccccc2N1[C@H]1c2cc(N)ccc2O[C@](C)(C(OC)OC)[C@@H]1O [Example 43, 1-[(2S, 3R, 4S)-6-amino-3,4-dihydro-2-dimethoxymethyl-3-hydroxy-2-methyl-2H-1-benzopyran-4-yl]-(2S)-2,3-dihydro-1H-indole-2carboxylic acid ethyl ester]
Rat brain homogenate
  % Inhibition: higher than 90%

## CCOC(=O)[C@H]1Cc2ccccc2N1[C@@H]1c2cc(N)ccc2O[C@](C)(C(OC)OC)[C@H]1O [Example 44, 1-[(2S, 3S, 4R)-6-amino-3,4-dihydro-2-dimethoxymethyl-3-hydroxy-2-methyl-2H-1-benzopyran-4-yl]-(2R)-2,3-dihydro-1H-indole-2-carboxylic acid ethyl ester]
Rat brain homogenate
  % Inhibition: higher than 90%

## CCOC(=O)[C@@H]1Cc2ccccc2N1[C@@H]1c2cc(N)ccc2O[C@](C)(C(OC)OC)[C@H]1O [Example 45, 1-[(2S, 3S, 4R)-6-amino-3,4-dihydro-2-dimethoxymethyl-3-hydroxy-2-methyl-2H-1-benzopyran-4-yl]-(2S)-2,3-dihydro-1H-indole-2-carboxylic acid ethyl ester]
[1]
  % Protection: higher than 90%

## CCOC(=O)c1cc2ccccc2n1[C@H]1c2cc(N)ccc2O[C@](C)(C(OC)OC)[C@@H]1O [Example 52, 1-[(2S, 3R, 4S)-6-amino-3,4-dihydro-2-dimethoxymethyl-3-hydroxy-2-methyl-2H-1-benzopyran-4-yl]-1H-indole-2-carboxylic acid ethyl ester]
Rat brain homogenate
  % Inhibition: higher than 90%

## CCOC(=O)c1cc2ccccc2n1[C@@H]1c2cc(N)ccc2O[C@](C)(C(OC)OC)[C@H]1O [Example 53, 1-[(2S, 3S, 4R)-6-amino-3,4-dihydro-2-dimethoxymethyl-3-hydroxy-2-methyl-2H-1-benzopyran-4-yl]-1H-indole-2-carboxylic acid ethyl ester]
[1]
  % Protection: higher than 90%
Rat brain homogenate
  % Inhibition: higher than 90%
